Experimental findings from publication PMC6277429 are described below.

The data set has as its target T1, His-GlnR (Mycobacterium smegmatis mc2 155) (UniProt A0R4C4).
T1 sequence (looked up): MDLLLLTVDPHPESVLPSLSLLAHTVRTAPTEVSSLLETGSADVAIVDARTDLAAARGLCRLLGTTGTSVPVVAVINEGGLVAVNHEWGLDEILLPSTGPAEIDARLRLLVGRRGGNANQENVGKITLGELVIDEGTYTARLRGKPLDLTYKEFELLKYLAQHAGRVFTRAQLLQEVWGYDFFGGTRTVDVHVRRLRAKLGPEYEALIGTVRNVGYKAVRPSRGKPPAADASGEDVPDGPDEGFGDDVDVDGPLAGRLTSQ
Description: EMSA. As to conditions: 4 uM GlnR, modest interaction; 10 mM Tris pH 7.5, 100 mM KCl (Fig. 3 legend; not in Methods), 1 mM DTT, 2.5% glycerol, 20 mM MgCl2, 500 ng poly(dI-dC), 0.05% NP-40; 30 nM DNA; 10 min room temperature; recombinant protein; residues 1-261; protein details: N-terminal His (pET28a); label: HEX 5'; probe letters rebuilt from the primers and the genome. Background: In EMSA bound probe runs differently from free probe, usually more slowly.

The exact form of at least one protein or probe is not confirmed. Weaker means in comparison with the reference protein, sequence or condition of that experiment. Where a protein sequence is shown, tags need not be part of it.

In the case of “CATAGGGCGAGGCTAAGAACCCGATATTGCCGCGATGTCGCGCTGTGTGAAGCCCCCATCACGGTGTGCTCACGTCTTCGGCAACGCACATGTGAGGTCCCCGACCGGTGAGCTCTCCGGACCACAGTCAGGCCACAACCGCC (double strand) [msmeg_0427 promoter]”, the binding result is recorded as “binds more weakly”.
